The exact form of at least one protein or probe is not confirmed. A negative result means that nothing was seen under these conditions. At least one verdict rests on a figure or table, not on a statement of the authors.
System: ΔZnF LigIII + ΔOBD LigIII
Assay: TR-FRET
Conditions: 50:50 mixture, bridging read-out only, end type not stated; 50 mM HEPES-NaOH pH 7.5, 80 mM NaCl, 5 mM MgCl2, 1 mM DTT, 1 mM ATP, 50 ug/ml BSA; anisotropy 25 C (25 nM DNA), TR-FRET room temperature, pull-down 4 C; recombinant protein; protein details: N-terminal His (pET28a),C-terminal His (pET28a)

AGTGAATTCGAGCTCG / AATCGAGCTCGCAATTCACT / CATGATTACGG / ATTCCGTAATCATG [bridged pair, complementary 3-nt overhangs]
binding result: no binding

— paper PMC4538836
